Reference: article PMC11320359
No constants are given. Whether binding was seen depends on the method and setting. In cells and extracts the contact can be indirect. A yes stands for co-enrichment or nearness to the bait. Other partners may have been found.

The chains behind the UniProt entries cited, without tags or fusion partners. Where a name states a change or a piece, a line headed by the entry shows the natural chain unless it says otherwise.
UniProt Q8K4Z2: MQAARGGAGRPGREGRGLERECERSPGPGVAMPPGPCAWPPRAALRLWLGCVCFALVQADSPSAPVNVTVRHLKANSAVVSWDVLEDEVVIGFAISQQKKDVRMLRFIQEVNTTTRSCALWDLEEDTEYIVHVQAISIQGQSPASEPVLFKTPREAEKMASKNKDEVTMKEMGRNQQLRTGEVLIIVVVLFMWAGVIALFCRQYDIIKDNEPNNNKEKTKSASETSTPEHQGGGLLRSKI
UniProt P49817: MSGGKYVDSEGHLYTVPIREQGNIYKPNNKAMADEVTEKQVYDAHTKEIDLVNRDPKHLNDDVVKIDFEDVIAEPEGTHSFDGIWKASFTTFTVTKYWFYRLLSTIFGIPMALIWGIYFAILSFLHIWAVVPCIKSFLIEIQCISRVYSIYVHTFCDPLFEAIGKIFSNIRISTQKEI

Molecular target: GST-irisin recombinant protein (UniProt Q8K4Z2)
Experiment: affinity purification with mass spectrometry; GST-irisin held on GST magnetic beads; target protein added, 30 min at room temperature; binding buffer 140 mM NaCl, 2.7 mM KCl, 10 mM Na2HPO4, 1.8 mM KH2PO4, pH 7.4; eluted with 10 mM reduced glutathione; band cut out and analysed by mass spectrometry; only the target purified

## Caveolin 1 (prey of the GST-irisin pull-down) (from UniProt P49817 1-178)
  binding: binds
